{"source": "patent US20050203062A1", "about": "“Use of tagatose in laxatives” (Spherix Incorporated, priority 2002, published 2005)", "origin": "cited, not measured here", "conditions": "FDA-approved value (upper value); cited from earlier work", "data": [{"smiles": "O=C(CO)[C@@H](O)[C@@H](O)[C@H](O)CO", "note": "[tagatose, D-tagatose]", "values": [{"measurement": "caloric value approved by the US Food and Drug Administration", "value": 1.5, "unit": "calories per gram"}]}]}
